Test [1] has as its target HF-mScarlet-DCP1 (Arabidopsis). The test is described as follows: proximity ligation.
Test [2] addresses HF-mScarlet-DCP1 (Arabidopsis). Kind of test: FRET or BRET. (In general: Bioluminescence resonance energy transfer reports proximity on the nanometre scale.)
Test [3] deals with cYFP-DCP1 (Arabidopsis). The test is described as follows: split reporter.
In test [4] the target is DCP1-GFP (Arabidopsis). The test is described as follows: FRET or BRET.

These are yes or no findings as the source states them, for the method shown. In cells and extracts the contact can be indirect. Binding calls can cover weak binding; strength is not graded here. For some of these results: Tags and fused reporters may be left off the sequences shown.

B1: PIN7-GFP (protein, UniProt Q940Y5 1-619)
chain: MITWHDLYTVLTAVIPLYVAMILAYGSVRWWKIFSPDQCSGINRFVAIFAVPLLSFHFISSNNPYAMNLRFIAADTLQKLIMLTLLIIWANFTRSGSLEWSITIFSLSTLPNTLVMGIPLLIAMYGEYSGSLMVQIVVLQCIIWYTLLLFLFEYRGAKILIMEQFPETGASIVSFKVESDVVSLDGHDFLETDAQIGDDGKLHVTVRKSNASRRSFYGGGGTNMTPRPSNLTGAEIYSLNTTPRGSNFNHSDFYSMMGFPGGRLSNFGPADMYSVQSSRGPTPRPSNFEESCAMASSPRFGYYPGGAPGSYPAPNPEFSTGNKTGSKAPKENHHHVGKSNSNDAKELHMFVWGSNGSPVSDRAGLQVDNGANEQVGKSDQGGAKEIRMLISDHTQNGENKAGPMNGDYGGEEESERVKEVPNGLHKLRCNSTAELNPKEAIETGETVPVKHMPPASVMTRLILIMVWRKLIRNPNTYSSLIGLIWALVAFRWDVAMPKIIQQSISILSDAGLGMAMFSLGLFMALQPKLIACGNSTATFAMAVRFFTGPAVMAVAAMAIGLRGDLLRVAIVQAALPQGIVPFVFAKEYNVHPAILSTGVIFGMLIALPITLVYYILLGL
As to B1, the binding result in test [1] is listed as “no binding”.

B2: PAT1-GFP (protein, UniProt Q0WPK4 1-793)
chain: MDAFGIGSSLNQAPVTQDLKKFGDNSTGNTMFDASQYAFFGNDVVEEVELGGLEEEDEILSFTGIAEDFSFDKEEVGDSRLLSDVDDLASTFSKLNREPDVYSNTGPITDRRSSQNSLAAEWTHGEELPNWYGRQILDSDAIKDDKVWSAQPFSSLDRVEQRIPDRTKLYPEPQRQLHQDHNQQQFSSEPILVPKSSFVSYPPPGSISPDQRLGHPNIPYQSGGPQMGSPNFSPFPNLQPQLPSMHHGSPQHTGNRPQFRPALPLNNLPPAQWMNRQNMHPGDSSGIMNNAMLQQPPHQNGLMPPQMQGSQNRLPHPMQPPLGHMPGMQPQLFNSHLSRSSSSGNYDGMLGFGDLREVRPGSGHGNRQNVRFPQQGFDAGVQRRYPFRSKYMSAGEIENILRMQLVATHSNDPYVDDYYHQACLAKKSAGAKLKHHFCPNHLRDLQQRARSNNEPHAFLQVEALGRVPFSSIRRPRPLLEVDPPNSAKFGNAEHKPTDKPLDQEPMLAARVYIEDGLCLLLEVDDIDRFLEFNQLQDGGHQLKQRRQALLQSLAVSLQLGDPLAKNGQSQSLDDFLFLRVISLPKGRKLLIRYLQLIFPGSDLMRIVCMAIFRHLRSLFGVLSSDPDIIKTTNKLATVINLCIQNMELGPVSTCLAAVSCSSEQAPLRPLGSPVGDGASTVLKSILDRASELIRANNFNNAGIALWRASFNEFFNMLMRYCISKYDSIMQSLQLPPHFATEISEEAAKAIVREMPIELLRSSFPHIDEQQKRILMEFLKRSMLGSQKTEPVLS
Turning to B2, the binding entry is “binds weakly” in test [2] and “binds” in test [1].

B3: VAP27-1 (BiFC construct) (protein, UniProt Q8VZ95 1-256)
chain: MSNIDLIGMSNRDLIGMSNSELLTVEPLDLQFPFELKKQISCSLYLTNKTDNNVAFKVKTTNPKKYCVRPNTGVVLPRSTCEVLVTMQAQKEAPSDMQCKDKFLLQGVIASPGVTAKEVTPEMFSKEAGHRVEETKLRVTYVAPPRPPSPVHEGSEEGSSPRASVSDNGHGSEFSFERFIVDNKAGHQENTSEARALITKLTEEKQSAIQLNNRLQRELDQLRRESKKSQSGGIPFMYVLLVGLIGLILGYIMKRT
For the molecule B3, the binding result in test [3] is given as “binds”.

B4: FLXL1 (BiFC construct) (protein, UniProt Q93V84 1-331)
chain: MSGRNRGPPPPSMKGGSYSGLQAPVHQPPFVRGLGGGPVPPPPHPSMIDDSREPQFRVDARGLPPQFSILEDRLAAQNQDVQGLLADNQRLAATHVALKQELEVAQHELQRIMHYIDSLRAEEEIMMREMYDKSMRSEMELREVDAMRAEIQKIRADIKEFTSGRQELTSQVHLMTQDLARLTADLQQIPTLTAEIENTKQELQRARAAIDYEKKGYAENYEHGKIMEHKLVAMARELEKLRAEIANSETSAYANGPVGNPGGVAYGGGYGNPEAGYPVNPYQPNYTMNPAQTGVVGYYPPPYGPQAAWAGGYDPQQQQQQQPPPQGQGHR
As to B4, in test [3], the binding entry was “binds weakly”.

B5: ECT4 (BiFC construct) (protein, UniProt A0A1P8AS03 1-605)
chain: MSTVAPPADQAADVLKKLSLDSKSRTLEIPEPTKKTGVYQYGAMDSNGQVPSFDRSLSPMLPSDALDPSVFYVPNVYQQPYYYGYGSDYTGYTNSESVDMTSGAYGENASLVYPQGYGYAAFPYSPATSPAPQLGGDGQLYGAQQYQYPFPLTASSGPFASSVPASTQSKLSTNKAANSASAGIPKGMNGSAPVKPLNQSALYGNSALGGGLAAGYQDPRYSYDGFYTPVSWHDGSNFSDVQRSVSGSGVASSYSKANNNVPATRNQNSSSNSHYTSMYQPASMTGYAAQGYYDRVSPNKSYGQYGSTVRSGMGYGSSGYGSRTNERGWLNTDNKYRSRGRGNSYFYGNENIDGLNELNRGPRAKGTKATEEVSSEEVKKQTFDESNTEETVTCVLPDREECNRDDFPVEYKDAKFFIIKSYSEDDVHKSIKYNVWASTPNGNKKLDAAYQEAQQKSSGCPVFLFFSVNASGQFIGLAEMKGPVDFNKNIEYWQQDKWTGSFPLKWHILKDVPNSLLKHITLEYNENKPVTNSRDTQEVKLEQGLKVVKIFKEHNSKTCILDDFSFYEARQKTILEKKAKQQQSQKQVWEGKTNDEKPGTVDSTM
For B5, in test [3], the binding entry is “binds”.

B6: SOK3-YFP (protein, UniProt Q8GYT8 1-540)
chain: MEARMKKYSREVSPERAKVWTEKSPKYHQKIKKVQIVYYLSKNRQLEHPHFMEVLISSPNGLYLRDVIERLNVLRGRGMASMYSWSSKRSYRNGFVWHDLSEDDLILPANGNEYVLKGSELFDESNSDHFSPIVNLATQNMKQIVVEPPSSRSMDDSSSSSSMNNGKGTNKHSHEDDELSPPALRSVSSSGVSPDSRDAKNSSSWCLAEYKVYKSEGLADASTQTDETVSGRSKTPIETFSRGVSTDEDVSSEPETSENNLVSEASCAGKERESAEISRNSVSPPFSNSASSLGGKTDTLESLIRADVSKMNSFRILEQEDVRMPAIPRLRASNMLMQLISCGSISVKDNNFGLVPTYKPKFGHSKFPSPFFSSSFMMGDLDRLSETPSLMGLRMEEKEYFSGSLVETKLQKKDAADSNASLKRSSSYNGDRASNQMGVAENGDSKPDSSKNNPSSRKASSILGKQQPLVSEKRRDSSEDTTKNIPCTTKTHDACSKRITESLRKPDSFREDEERVIKIDERLASGARVRIESKVPSEEP
Take B6: the binding entry in test [1] is on record as “no binding”.

B7: MLN51 (BiFC construct) (protein, UniProt Q93ZJ9 1-605)
chain: MAPDGVEDSDYESDPDELNRSLATRRREASDDDEDDEEADDHDKLRAAIQIHSDEHSGVVVVDSDDNEGLHIEDSYGDDDDEEEDGDYGQVDDHVEYIADNNDKTIVAGNGTDDSAATDLVDGEEQKKKEPFAVPTAGAFYMHDDRFQELDAASNRRMRGGRRLWQSRDERKWGHDKFEEMNTQKQQYDRRTSRGRGRGRGQGRGQDRGQSRGNNSKEFTGNGHQNQFPKAVTRGRGARRYEVALRNGNQAPSVQTKQSQNSSVEVSHVDLGRPPTETATLETEAIQAKKNVFASSLNSASPPFYPSRSNNNLAQKDVQAGMGRLHINENPNPTGKKFGNTKSSSLWGRTAQTTSHGRGVPPHGQVLYQQSPNQGDKVSSPMQIRGMPKGTDQSCTQLPGQVFNQHSAVISLLPSSPPKTGSSENPYLSGEIESAVETGALVAKGKGSLQPSGRGSFMYGGTQFMGPAGMAAGHGNPNFPAFLPVMQFGGQHGGVPTFGMALPGYFQPEHGTGNPEMTWLPILAGPGALGGSYCPPYTVLDGSYQADKPGLPSSAGSSSQENSSNNPNDEEPMERPEVTNNGNSQRSNSNPNKQPRRYSEMSFSK
In the case of B7, the binding entry in test [3] is “binds”.

B8: BRK1-mCherry (protein, UniProt Q94JY4 1-85)
chain: MAKAGGITNAVNVGIAVQADWENREFISHISLNVRRLFEFLVQFESTTKSKLASLNEKLDLLERRLEMLEVQVSTATANPSLFAT
For B8, the binding entry in test [4] is “binds”.

B9: BRK1-YFP (protein, UniProt Q94JY4 1-85)
chain: MAKAGGITNAVNVGIAVQADWENREFISHISLNVRRLFEFLVQFESTTKSKLASLNEKLDLLERRLEMLEVQVSTATANPSLFAT
As for B9, the binding result in test [1] was “binds”.

(Values after doi:10.1101/2022.06.03.494746.)
